Assay [1] addresses T1, BirA*-FLAG-MOB3C (human), Q70IA8.
T1 chain: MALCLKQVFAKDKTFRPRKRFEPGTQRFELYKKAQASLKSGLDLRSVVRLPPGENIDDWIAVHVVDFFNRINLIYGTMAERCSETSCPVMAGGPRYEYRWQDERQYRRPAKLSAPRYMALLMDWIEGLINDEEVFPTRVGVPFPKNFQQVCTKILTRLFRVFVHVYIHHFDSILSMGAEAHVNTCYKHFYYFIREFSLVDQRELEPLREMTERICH
The assay can be described thus: proximity labelling; BioID: BirA*-FLAG-MOB baits in tetracycline-inducible HEK293 and HeLa Flp-In T-REx cells; tetracycline 1 ug/ml and biotin 50 uM for 24 h; mass spectrometry; SAINTexpress against BirA*-FLAG and BirA*-FLAG-EGFP controls, BFDR <=0.01; the two cell lines' datasets combined for the MoSS score. The note with it: remark: other sources report otherwise.

In assay [2] the target is T2, BirA*-FLAG-MOB3B (human), Q86TA1.
T2 chain: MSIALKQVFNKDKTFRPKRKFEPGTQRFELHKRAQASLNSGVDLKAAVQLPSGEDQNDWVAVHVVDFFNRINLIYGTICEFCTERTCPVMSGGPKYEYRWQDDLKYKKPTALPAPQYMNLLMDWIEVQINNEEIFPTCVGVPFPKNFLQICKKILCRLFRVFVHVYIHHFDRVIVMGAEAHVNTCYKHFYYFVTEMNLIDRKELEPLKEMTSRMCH
Described as above. The note with it: remark: other sources report otherwise.

No constants are given. Whether binding was seen depends on the method and setting. Binding seen in cells or lysates may run through a third protein. These calls come from enrichment with a bait or labelling near it, and not all partners need be listed. No binding means not detected with the bait. Sequences can lack the tags named with a protein.

B1: STK4, Q13043 1-487 (protein)
chain: METVQLRNPPRRQLKKLDEDSLTKQPEEVFDVLEKLGEGSYGSVYKAIHKETGQIVAIKQVPVESDLQEIIKEISIMQQCDSPHVVKYYGSYFKNTDLWIVMEYCGAGSVSDIIRLRNKTLTEDEIATILQSTLKGLEYLHFMRKIHRDIKAGNILLNTEGHAKLADFGVAGQLTDTMAKRNTVIGTPFWMAPEVIQEIGYNCVADIWSLGITAIEMAEGKPPYADIHPMRAIFMIPTNPPPTFRKPELWSDNFTDFVKQCLVKSPEQRATATQLLQHPFVRSAKGVSILRDLINEAMDVKLKRQESQQREVDQDDEENSEEDEMDSGTMVRAVGDEMGTVRVASTMTDGANTMIEHDDTLPSQLGTMVINAEDEEEEGTMKRRDETMQPAKPSFLEYFEQKEKENQINSFGKSVPGPLKNSSDWKIPQDGDYEFLKSWTVEDLQKRLLALDPMMEQEIEEIRQKYQSKRQPILDAIEAKKRRQQNF
Turning to B1, the binding result in assay [1] and in assay [2] was “no binding” in each case.

The values above are taken from article PMC10480535.
